Laboratory results as given in PMC5097173.
Results are given in words; binding and its absence hold for the method and conditions named. In cells and extracts the contact can be indirect. Some entries that bind do so weakly or less than the wild type. For part of these data: Tags and fused reporters may be left off the sequences shown. Blank lines part the entries; values can stand above or below the molecule they belong to.

The chains behind the UniProt entries cited, without tags or fusion partners. Where a name states a change or a piece, a line headed by the entry shows the natural chain unless it says otherwise.
UniProt O88907: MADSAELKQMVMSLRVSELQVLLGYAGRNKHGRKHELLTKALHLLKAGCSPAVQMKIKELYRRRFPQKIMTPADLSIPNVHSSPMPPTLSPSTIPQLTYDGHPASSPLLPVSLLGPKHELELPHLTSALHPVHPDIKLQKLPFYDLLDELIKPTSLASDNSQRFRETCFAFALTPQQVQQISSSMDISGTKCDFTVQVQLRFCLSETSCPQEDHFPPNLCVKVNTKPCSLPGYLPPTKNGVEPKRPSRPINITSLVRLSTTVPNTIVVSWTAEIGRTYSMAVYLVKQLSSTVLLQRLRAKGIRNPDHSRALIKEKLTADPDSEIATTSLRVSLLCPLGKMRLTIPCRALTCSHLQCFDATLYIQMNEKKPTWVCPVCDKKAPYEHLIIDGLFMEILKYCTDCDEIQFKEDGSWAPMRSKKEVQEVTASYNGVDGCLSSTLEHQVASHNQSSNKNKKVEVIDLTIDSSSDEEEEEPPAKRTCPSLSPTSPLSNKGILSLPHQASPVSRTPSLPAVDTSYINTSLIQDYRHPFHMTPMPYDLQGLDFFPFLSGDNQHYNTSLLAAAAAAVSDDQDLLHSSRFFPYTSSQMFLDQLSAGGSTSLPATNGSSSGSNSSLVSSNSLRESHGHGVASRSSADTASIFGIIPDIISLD
UniProt Q9NS91: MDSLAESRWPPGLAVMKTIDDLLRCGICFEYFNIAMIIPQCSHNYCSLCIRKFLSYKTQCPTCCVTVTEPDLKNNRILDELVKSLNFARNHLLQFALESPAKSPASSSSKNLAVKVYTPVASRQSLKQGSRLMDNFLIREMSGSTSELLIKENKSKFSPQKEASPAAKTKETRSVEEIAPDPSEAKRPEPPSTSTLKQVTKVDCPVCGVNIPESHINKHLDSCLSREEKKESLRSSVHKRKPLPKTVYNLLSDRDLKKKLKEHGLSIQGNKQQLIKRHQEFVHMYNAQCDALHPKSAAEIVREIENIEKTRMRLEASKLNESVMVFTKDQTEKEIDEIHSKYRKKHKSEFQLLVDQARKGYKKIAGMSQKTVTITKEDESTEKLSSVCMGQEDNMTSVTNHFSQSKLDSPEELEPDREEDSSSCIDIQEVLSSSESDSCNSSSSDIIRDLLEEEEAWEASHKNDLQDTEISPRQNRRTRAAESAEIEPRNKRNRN

Assays:
Flag-mPIAS1 = Flag-mPIAS1 (UniProt O88907); assay: co-IP; 293FT cells transfected with 2 µg of each plasmid for 24 h; lysis in NETN buffer (50 mM Tris-HCl pH 7.5, 150 mM NaCl, 1 mM EDTA, 0.5% NP40), sonicated; IP with anti-polη, anti-Flag or anti-HA antibody, 3 h at 4 °C, protein A sepharose; final wash 300 mM NaCl; western blot; for polη with Flag-PIAS1 also in mock- or Rad18-depleted (siRNA) cells
[1] = biological target: T1, human DNA polymerase eta (polη), wild type, expressed from pcDNA.3.1.zeo-.POLH (human) (UniProt Q9Y253); assay: co-IP; Supplementary Fig. 9b and 9c; legends not shown, antibody and tags not told; immunoprecipitation from transfected 293FT lysates is the only interaction method given in the methods
T1 sequence: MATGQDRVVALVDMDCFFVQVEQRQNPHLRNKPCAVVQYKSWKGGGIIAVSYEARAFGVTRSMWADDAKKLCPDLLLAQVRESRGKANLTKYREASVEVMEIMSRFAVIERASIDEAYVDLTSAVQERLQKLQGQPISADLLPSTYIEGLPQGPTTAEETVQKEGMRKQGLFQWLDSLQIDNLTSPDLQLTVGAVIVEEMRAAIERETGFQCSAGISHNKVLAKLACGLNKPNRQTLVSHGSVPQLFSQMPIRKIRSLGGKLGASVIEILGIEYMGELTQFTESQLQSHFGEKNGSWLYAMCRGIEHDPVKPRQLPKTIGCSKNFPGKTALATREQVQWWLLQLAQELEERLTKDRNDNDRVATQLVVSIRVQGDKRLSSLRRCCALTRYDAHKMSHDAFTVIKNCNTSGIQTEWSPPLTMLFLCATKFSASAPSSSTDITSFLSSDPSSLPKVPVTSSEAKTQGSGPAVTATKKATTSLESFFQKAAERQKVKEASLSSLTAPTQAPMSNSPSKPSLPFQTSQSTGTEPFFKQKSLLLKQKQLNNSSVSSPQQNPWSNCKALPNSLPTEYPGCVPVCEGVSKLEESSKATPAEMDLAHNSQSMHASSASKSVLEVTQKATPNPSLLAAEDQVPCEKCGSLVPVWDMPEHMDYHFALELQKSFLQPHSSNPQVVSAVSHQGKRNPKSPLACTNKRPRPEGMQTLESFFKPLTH

Flag-PIAS4, Q8N2W9 = biological target: T2, Flag-PIAS4, Q8N2W9; assay: co-IP; 293FT cells transfected with 2 µg of each plasmid for 24 h; lysis in NETN buffer (50 mM Tris-HCl pH 7.5, 150 mM NaCl, 1 mM EDTA, 0.5% NP40), sonicated; IP with anti-polη, anti-Flag or anti-HA antibody, 3 h at 4 °C, protein A sepharose; final wash 300 mM NaCl; western blot; for polη with Flag-PIAS1 also in mock- or Rad18-depleted (siRNA) cells; settings: remark: other sources report otherwise
T2 chain: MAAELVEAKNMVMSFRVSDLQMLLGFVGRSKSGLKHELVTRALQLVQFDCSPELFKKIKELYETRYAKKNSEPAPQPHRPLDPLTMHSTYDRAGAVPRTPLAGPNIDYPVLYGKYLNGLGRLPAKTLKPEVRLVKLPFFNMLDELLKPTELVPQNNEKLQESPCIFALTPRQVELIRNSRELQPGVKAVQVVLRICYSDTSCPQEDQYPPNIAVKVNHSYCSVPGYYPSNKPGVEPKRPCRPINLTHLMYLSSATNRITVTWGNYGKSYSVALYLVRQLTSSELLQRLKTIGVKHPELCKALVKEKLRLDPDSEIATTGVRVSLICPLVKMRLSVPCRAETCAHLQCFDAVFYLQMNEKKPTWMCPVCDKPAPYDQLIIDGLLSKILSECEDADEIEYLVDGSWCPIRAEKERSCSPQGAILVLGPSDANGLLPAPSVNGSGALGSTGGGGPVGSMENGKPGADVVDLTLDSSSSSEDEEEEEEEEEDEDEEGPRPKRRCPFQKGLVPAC

binding (Flag-mPIAS1): binds
Molecule: HA-Rad18, wild type, expressed from pCMV2-HA-RAD18 (from UniProt Q9NS91 1-495)

binding [1]: binds
Molecule: Rad18^1-460 (truncation mutant lacking the C-terminal NLS) (from UniProt Q9NS91 1-460) (domain or fragment)

binding (Flag-PIAS4, Q8N2W9): binds
B1: human DNA polymerase eta (polη), wild type, expressed from pcDNA.3.1.zeo-.POLH, Q9Y253 1-713 (protein)
chain: T1 sequence
